For 19 compounds, survivor count and T/C results are on record in PubChem BioAssay AID248 (DTP/NCI, 2004).

SMILES strings stand for the structures. The list shows only some results of the screen, not a fair sample: it is rich in T/C values a quarter to a half above the control, in often repeated tests (any T/C) and in doses without a T/C. Further doses and runs are listed elsewhere. T/C: endpoint of the treated group in % of that of the vehicle group. Some doses have a count of surviving animals in place of a T/C: the source holds a T/C of zero for them, seemingly a mark for toxic or unscored doses. Some doses without a T/C left all or most animals alive at the check, yet need not have been tolerated: survival well below the control is almost never listed, so the zero probably covers shortened survival too. Counts of survivors are from the toxicity check (mostly the fifth day) where no day follows; animals may have died later. Schedules are NCI's codes, read here as Q, the interval in days (D) or hours (H), X, the number of doses. Some structures stand for samples that the source files as different forms (salt, stereo form or complex); doses refer to the form tested. Where survival is the endpoint, the PubChem record calls one and a half times the control and up active, and a quarter to a half above the control has no call in these data; cut-offs in other NCI protocols can differ. Some schedule codes hold Z or #, which are not explained here.

The assay relates to L1210 leukemia ip in BDF1 mice, survival T/C. The assay can be described thus: NCI In Vivo Anticancer Drug Screen. Data for tumor model L1210 Leukemia (intraperitoneal) in B6D2F1 (BDF1) mice. As to conditions: T/C endpoint: mean survival time, higher T/C = longer survival.
Where [1] appears, read: dose: 400.0 mg/kg/injection, schedule: Q01DX001 (ip), vehicle: saline.
Setting [2] is: dose: 400.0 mg/kg/injection, schedule: Q04DX003 (ip), vehicle: saline.
[3] abbreviates: dose: 100.0 mg/kg/injection, schedule: Q01DX009 (ip), vehicle: saline with Tween-80.
Setting [4] is: dose: 200.0 mg/kg/injection, schedule: Q01DX009 (ip), vehicle: saline with Tween-80.
Where [5] appears, read: dose: 400.0 mg/kg/injection, schedule: Q01DX009 (ip), vehicle: saline with Tween-80.

For the compound `CCCCCCCC[N+](C)(CCCCCCCC)CCCCCCCC`, the survivor count is given as 4 of 6 (dose: 0.39 mg/kg/injection, schedule: Q04DX003 (ip), vehicle: acetone); 1 of 6 (dose: 0.78 mg/kg/injection, schedule: Q04DX003 (ip), vehicle: acetone); 3 of 6 (dose: 0.95 mg/kg/injection, schedule: Q01DX009 (ip), vehicle: saline); 5 of 6 (dose: 1.45 mg/kg/injection, schedule: Q01DX009 (ip), vehicle: saline); 1 of 6 (dose: 1.56 mg/kg/injection, schedule: Q01DX001 (ip), vehicle: acetone); 2 of 3 (dose: 1.56 mg/kg/injection, schedule: Q01DX001 (ip), vehicle: saline). For the same compound, the survivor count (dose: 2.0 mg/kg/injection, schedule: Q01DX015 (ip), vehicle: saline) was 1 of 6; the survivor count (dose: 2.17 mg/kg/injection, schedule: Q01DX009 (ip), vehicle: saline) is 0 of 6; the survivor count (dose: 3.12 mg/kg/injection, schedule: Q01DX001 (ip), vehicle: acetone) is given as 0 of 6; the survivor count (dose: 3.12 mg/kg/injection, schedule: Q01DX001 (ip), vehicle: saline) is on record as 2 of 3; the survivor count (dose: 4.0 mg/kg/injection, schedule: Q01DX015 (ip), vehicle: saline) was 0 of 6; the survivor count (dose: 6.25 mg/kg/injection, schedule: Q01DX001 (ip), vehicle: acetone) was 1 of 6. For the same compound, the survivor count is listed as 0 of 6 (dose: 6.25 mg/kg/injection, schedule: Q01DX001 (ip), vehicle: saline with Tween-80); 0 of 3 (dose: 6.25 mg/kg/injection, schedule: Q01DX001 (ip), vehicle: saline); 0 of 6 (dose: 12.5 mg/kg/injection, schedule: Q01DX001 (ip), vehicle: saline with Tween-80); 0 of 6 (dose: 12.5 mg/kg/injection, schedule: Q01DX001 (ip), vehicle: saline); 0 of 6 (dose: 25.0 mg/kg/injection, schedule: Q01DX001 (ip), vehicle: saline with Tween-80); 0 of 6 (dose: 25.0 mg/kg/injection, schedule: Q01DX001 (ip), vehicle: saline). In addition, the survivor count (dose: 50.0 mg/kg/injection, schedule: Q01DX001 (ip), vehicle: saline) is 0 of 6; the survivor count (dose: 100.0 mg/kg/injection, schedule: Q01DX001 (ip), vehicle: saline with Tween-80) was 0 of 6; the survivor count (dose: 100.0 mg/kg/injection, schedule: Q01DX001 (ip), vehicle: saline) is 0 of 6; the survivor count (dose: 200.0 mg/kg/injection, schedule: Q01DX001 (ip), vehicle: saline with Tween-80) is 0 of 6; the survivor count (dose: 200.0 mg/kg/injection, schedule: Q01DX001 (ip), vehicle: saline) is on record as 0 of 6; the survivor count (dose: 400.0 mg/kg/injection, schedule: Q01DX001 (ip), vehicle: saline with Tween-80) was 1 of 6. Moreover, under setting [1], the survivor count is reported as 0 of 6.

Turning to `CCN(CC)C(=O)OCCCN(C)C`, the survivor count is reported as 2 of 6 (dose: 100.0 mg/kg/injection, schedule: Q01DX009 (ip), vehicle: Klucel (hydroxypropylcellulose) (HPC)); 0 of 6 (dose: 200.0 mg/kg/injection, schedule: Q01DX009 (ip), vehicle: Klucel (hydroxypropylcellulose) (HPC)); 0 of 6 under setting [2].

As to `CC1(/C=N/Nc2nnc(N/N=C/C3(C)CCC=CO3)c3ccccc23)CCC=CO1` (stereo not drawn), the survivor count (dose: 400.0 mg/kg/injection, schedule: Q01DX001 (ip), vehicle: carboxymethylcellulose (CMC)) is 0 of 4.

For `O=C(C=C(C(F)(F)F)C(F)(F)F)c1ccc(-c2ccccc2)cc1`, the survivor count is 5 of 6 under setting [3]; 1 of 6 under setting [4]; 0 of 6 (dose: 400.0 mg/kg/injection, schedule: Q04DX003 (ip), vehicle: saline with Tween-80).

Consider `O=P(CCC(F)(F)C(F)(F)C(F)(F)C(F)(F)C(F)(F)C(F)(F)C(F)(F)F)(N1CC1)N1CC1`, for which the survivor count (dose: 150.0 mg/kg/injection, schedule: Q01DX001 (ip), vehicle: carboxymethylcellulose (CMC)) is given as 1 of 6 and the survivor count (dose: 300.0 mg/kg/injection, schedule: Q01DX001 (ip), vehicle: carboxymethylcellulose (CMC)) is 0 of 6.

Regarding `CCCCCOC(=S)S`, the survivor count under setting [1] was 1 of 4.

For `C=C(C(=O)c1ccccc1)C(O)c1ccccc1` (stereo not drawn), under setting [5], the survivor count is recorded as 3 of 6.

`O=C(NC(=O)C(Cl)Cl)Nc1cccc2c1-c1ccccc1C2`: the survivor count (dose: 400.0 mg/kg/injection, schedule: Q01DX009 (ip), vehicle: Klucel (hydroxypropylcellulose) (HPC)) is recorded as 3 of 6.

For `CCCC1(CC)C(=O)NC(=S)N(C)C1=O` (stereo not drawn), the survivor count (dose: 300.0 mg/kg/injection, schedule: Q01DX001 (ip), vehicle: other) was 3 of 6.

Take `CC1(C)C2CCC1(CS(=O)(=O)O)C(=O)C2Br.[Ag]` (stereo not drawn): the survivor count is, setting by setting: (dose: 25.0 mg/kg/injection, schedule: Q01DX009 (ip), vehicle: saline with Tween-80) 6 of 6; (dose: 50.0 mg/kg/injection, schedule: Q01DX009 (ip), vehicle: saline with Tween-80) 2 of 6.

On to `CN(N=O)C(=O)Nc1ccc(NC(=O)N(C)N=O)cc1`, for which the T/C reads like this: (dose: 20.0 mg/kg/injection, schedule: Q01DX Z (ip), vehicle: carboxymethylcellulose (CMC)) 138 % of control; (dose: 90.0 mg/kg/injection, schedule: Q01DX001 (ip), vehicle: carboxymethylcellulose (CMC)) 127 % of control; (dose: 180.0 mg/kg/injection, schedule: Q01DX001 (ip), vehicle: carboxymethylcellulose (CMC)) 134 % of control. Moreover, under “dose: 720.0 mg/kg/injection, schedule: Q01DX001 (ip), vehicle: carboxymethylcellulose (CMC)”, the survivor count is recorded as 1 of 10.

For the compound `COc1cc(/C=C/[N+](=O)[O-])c([N+](=O)[O-])cc1OC`, the survivor count reads like this: under setting [4], 3 of 6; under setting [1], 0 of 4.

Turning to `CC(O)C[As](=O)(O)c1ccccc1` (stereo not drawn), the survivor count reads like this: (dose: 50.0 mg/kg/injection, schedule: Q04DX002 (ip), vehicle: saline) 2 of 3; (dose: 100.0 mg/kg/injection, schedule: Q04DX002 (ip), vehicle: saline) 0 of 3; (dose: 200.0 mg/kg/injection, schedule: Q04DX002 (ip), vehicle: saline) 0 of 3; (dose: 400.0 mg/kg/injection, schedule: Q04DX002 (ip), vehicle: saline) 0 of 3.

Turning to `Cc1ccc(C(=O)C[n+]2cccc3ccccc32)c(C)c1`, the survivor count by setting is: (dose: 50.0 mg/kg/injection, schedule: Q04DX002 (ip), vehicle: saline with Tween-80) 1 of 3; (dose: 100.0 mg/kg/injection, schedule: Q04DX002 (ip), vehicle: saline with Tween-80) 0 of 3; (dose: 200.0 mg/kg/injection, schedule: Q04DX002 (ip), vehicle: saline with Tween-80) 0 of 3; (dose: 400.0 mg/kg/injection, schedule: Q04DX002 (ip), vehicle: saline with Tween-80) 0 of 3.

As to `COc1ccc(C(=O)NC(=O)C(C(=O)c2ccc(OC)cc2)c2ccccc2)cc1` (stereo not drawn), the survivor count is given as 4 of 4 (dose: 200.0 mg/kg/injection, schedule: Q01DX001 (ip), vehicle: other) and 4 of 4 (dose: 400.0 mg/kg/injection, schedule: Q01DX001 (ip), vehicle: other).

For `CN(C)C1CC1c1ccccc1` (stereo not drawn), the survivor count reads like this: (dose: 100.0 mg/kg/injection, schedule: Q01DX009 (ip), vehicle: saline) 2 of 6; (dose: 200.0 mg/kg/injection, schedule: Q04DX003 (ip), vehicle: saline) 2 of 4; under setting [2], 0 of 4.

As for `O=c1[nH]cnc2c(C3OC(CO)C(O)C3O)[nH]nc12` (stereo not drawn), the survivor count (dose: 5.0 mg/kg/injection, schedule: Q01DX015 (ip), vehicle: carboxymethylcellulose (CMC)) is recorded as 6 of 6.

Turning to `O=C(OC12CCCCC1CCCC2)c1ccc([N+](=O)[O-])cc1` (stereo not drawn), the survivor count is given as 6 of 6 under setting [3] and 6 of 6 under setting [5].

For the compound `Cc1ccc(C/C(Cc2ccccc2)=N/O)cc1`, the survivor count (dose: 400.0 mg/kg/injection, schedule: Q04DX002 (ip), vehicle: Klucel (hydroxypropylcellulose) (HPC)) is recorded as 1 of 3.
